Library screening results

Measurements from “University of Dundee, Small-Polar-MMV Screening Library” (2021), ChEMBL document CHEMBL3988442.

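Viability assay of Plasmodium falciparum sporozoites; the read-out is not stated. The concentration is filed as 10 mM, unlikely as a test dose, so the dose is not known. Direction is inferred from retests: higher values go with lower viability. Strong results were mostly tested again. About 34,000 compounds were tested under these conditions; 0.84% (about 280) showed 50% or more at least once.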

The filed quantity is “Percent Effect” (%).
The controls that fix the scale are not given in the record; negative values are as filed.
The compounds are a random part of those screened.
Two or more numbers in one place are separate tests of the same structure; such repeats can differ widely.

| structure | percent effect |
|---|---|
| `COCC(O)CN1CCC(=O)N(CC=C(C)C)Cc2ccccc21` (configuration not stated) | -40.87% |
| `Cc1cc2n(n1)[C@@H](C(F)(F)F)C[C@@H](C1CCCN(C(=O)C(C)C)C1)N2` (some centres not stated) | 9.707% |
| `COCCCN(C)C1CCCN(Cc2noc(C3CC3)n2)C1` (configuration not stated) | 7.522% |
| `CN(C)CCN1CCC2(CCN(C(=O)c3ccncc3)CC2)C1=O.O=C(O)C(F)(F)F.O=C(O)C(F)(F)F` | 1.083% |
| `CC(C)Nc1nc2c(cc1C(=O)O)CCN(Cc1ccsc1)CC2.O=C(O)C(F)(F)F.O=C(O)C(F)(F)F` | 6.577% |
| `CCc1nc(C2CCCN2C(=O)c2csc(COC)n2)no1` (configuration not stated) | -1028% and -1117% and 0.9201% |
| `Cc1noc(C)c1-c1cc(CC2CCN(C(=O)c3cc[nH]n3)C2)ncn1` (configuration not stated) | 5.996% |
| `O=C(O)C(F)(F)F.O=S(=O)(N[C@@H]1CCO[C@]2(CCN(CC3CCOCC3)C2)C1)C1CC1` | 3.552% |
| `Cn1cc(C2COC3(CCN(C(=O)c4ccccn4)CC3)C2)cn1.O=C(O)C(F)(F)F` (configuration not stated) | 6.787% |
| `CC(C)c1noc(CN2CCN(CCO)CC2)n1` | 5.093% |
| `O=C1CC(NCc2cnc(-c3cccs3)nc2)CN1c1ccccc1` (configuration not stated) | -10.84% |
| `COc1ccc(CNC(=O)N(Cc2ccc(F)cc2F)C2CC2)cn1` | -6.826% |
| `CN(C)c1ncccc1C(=O)N1CCCC1Cn1cccn1` (configuration not stated) | 9.822% |
| `CCc1nc(C2CCCN(C(=O)c3ccc4c(c3)nnn4C)C2)no1` (configuration not stated) | -28.71% and -24.28% and -7.861% |
| `COc1cc(NC(=O)NCc2nccn2C)ccc1Br` | -18.38% |
| `COc1ccc(C(=O)NS(=O)(=O)c2cccc(C#N)c2)cc1` | 5.836% |
| `Cc1ccc(OCc2occc2C(=O)N2CCOC(C(=O)O)C2)cc1` (configuration not stated) | 16.87% |
| `COc1cc(CN(C)C(=O)NCc2cccnc2OC)ccc1SC` | -7.692% |
| `CC(=O)N1CCN(c2cc(CCN)nc(C3CC3)n2)CC1.Cl` | -2.224% |
| `CCN(CC)c1ccc(C(=O)N2CCCC2Cn2cc(C)cn2)cn1` (configuration not stated) | 6.936% |
| `[H][C@]12CC[C@@]3(N=C(CC)NC3=O)[C@@]1([H])CN(C(=O)NCC1CCCCC1)C2` | 1.07% |
| `Cc1ccc(C)c(CSc2nnc(C(N)Cc3ccccc3)o2)c1.Cl` (configuration not stated) | -9.249% |
| `Cc1ccc2c(c1)CN(C(=O)c1cccs1)C(CN(C)C)CO2` (configuration not stated) | 10.21% |
| `Cc1cc(CNC(=O)N2CCN(c3ccccc3)CC2)no1` | -2.255% |
| `O=C(CCc1ccsc1)NCc1ccnc(OC2CCOCC2)c1` | -17.14% |
| `Cc1nc(-c2nc(C(=O)N3CCOCC3)c3ccccn23)cn1C(C)C` | 54.88% and 55.7% |
| `Cc1ccc(C(=O)NCc2ccc(N3CCCC(C(N)=O)C3)cc2)o1` (configuration not stated) | 10.23% |
| `Cc1c(COc2ccccc2)cccc1NC(=O)N1CC[C@H](O)C1` | -3.52% |
| `Cc1[nH]c2ccccc2c1-c1ccnc(NCCN2CCCCC2)n1` | 7.875% |
| `Cc1ccc(CN(CCCn2ccnc2)Cc2c(F)cccc2F)s1.O=C(O)CC(O)(CC(=O)O)C(=O)O` | 19.13% |
| `O=C(O)C(F)(F)F.[H][C@@]12CCC(=O)N(c3cnn(C)c3)[C@]1([H])CCN2CC1CCOCC1` | -4.384% |
| `Cc1ccc(NC(=O)Nc2cnc(N3CCN(C)CC3)nc2)c(Cl)c1` | 2.123% |
| `Cc1cc(C)c2c(NC(C)c3nncn3C3CCCC3)ncnc2n1` (configuration not stated) | -2.855% |
| `Cc1cc(NC(=O)CN2CCCC2c2noc(C(C)C)n2)n(C)n1` (configuration not stated) | -15.93% |
| `CN(C)CCNCC1CCOC(C)(C)C1` (configuration not stated) | 1.88% |
| `COc1cccc(CNCCc2cccc(C(N)=O)c2)c1` | -3.622% |
| `O=C(NCc1nn(-c2ccccc2)c2c1CCC2)NC1CCOCC1` | 6.856% |
| `O=C(CCc1ccccc1F)NC1CCCN(c2ccccn2)C1` (configuration not stated) | -12.31% |
| `O=C(Cc1ccc2c(c1)CCC2)N1CCN(c2cnccn2)CC1` | 10.21% |
| `CCc1nsc(N2CCCN(C(=O)c3ccc(CC)o3)CC2)n1` | -3.403% |
| `O=C(NCC(=O)N1CCCCC1)c1ccoc1` | -1.778% |
| `CC(C)OCCC(=O)NCCc1csc(N2CCCC2)n1` | -3.431% |
| `CCCn1cc(Cl)c(C(=O)N2C[C@@H](O)[C@H](NC(C)=O)C2)n1` | 1.36% |
| `Cn1c(N2CC[C@H](O)C2)nc2cc(C(N)=O)ccc21` | -1.471% |
| `CC(C)c1ncc2c(n1)CN(CC(=O)Nc1ccc(Cl)cn1)CC2` | 5.061% |
| `CCN(Cc1ccco1)C(=O)NCc1nnc2n1CCC2` | 2.471% |
| `COC1CN(C(=O)CC(C)C)CCC(=O)N(C)c2ccccc21` (configuration not stated) | -36.78% |
| `Cc1ncccc1OC1(C(=O)NCCCN2CCOCC2)CCNCC1` | -12.59% |
| `COc1ccccc1C(=O)N1CC(Cc2nccc3ccn(C)c23)C1` | -28.32% and -15.52% and -33.57% |
| `CN1CC(Oc2ccccc2)=NC(SCC(=O)c2ccccc2)=N1` | -3.047% |
| `[H][C@]12CC[C@]([H])(CN(C(=O)c3ccc(N(CC)CC)cc3)C1)N(CCOC)C2` | -19.17% and -16.42% |
| `COCCN(C)CCN1CC2(CCN(C3CCOC3)CC2)OC1=O` (configuration not stated) | 0.08772% |
| `O=C(CC1CC1)N1CCC2(CCCN(c3ncccn3)C2)CC1` | 9.635% |
| `Cc1cc(C)cc(OCC(=O)NC2CCN(S(C)(=O)=O)CC2)c1` | 15.47% |
| `O=C(O)C(F)(F)F.O=C(O)C(F)(F)F.[H][C@@]12COC[C@]1(C(=O)NCCc1cccs1)CN(Cc1ccncc1)C2` | 4.855% |
| `Cn1cc(CN2CCCN(C(=O)c3cn4ccccc4n3)CC2)cn1` | 4.67% |
| `CC(C)(C)C(=O)N1CCC(c2cnc(-c3cn[nH]c3)cn2)CC1` | 16.23% |
| `CCc1nnc2n1CCN(c1nc3ccccc3o1)C2` | -7.338% |
| `CN(Cc1ccc(Br)s1)Cn1nc(-c2ccccc2)oc1=O` | 11.46% |
| `Cc1cc(-n2cncn2)n2ncnc2n1` | -0.4785% |
| `CC(C)c1nc(C2CCCN2Cc2ccccc2C#N)no1` (configuration not stated) | 8.667% |
| `NC(=O)c1cccc(-c2cnc(C3CCCNC3)cn2)c1` (configuration not stated) | 16.88% |
| `CCc1nc2c(N3CCC4(CC3)CC(=O)N(CC)C4)ncnc2o1` | 9.529% |
| `CC(C)CN1C(=O)C2(CCN(CC3CCOCC3)C2)c2ccccc21.O=C(O)C(F)(F)F` (configuration not stated) | 4.04% |
| `CCN1CCNC(=O)C12CCN(C(=O)c1ccccn1)CC2` | 11.22% |
| `Cc1cc(C(=O)N2Cc3ccccc3OC3(CCOCC3)C2)nc(N)n1` | -5.332% |
| `N#CCCN(C(=O)CN1CCCC1C1CCCCC1)c1ccccc1` (configuration not stated) | -2.029% |
| `COc1cc2cc(C(=O)O)n(C)c2cc1OC` | -6.579% |
| `Cc1ccc(-n2nnc(C(=O)NS(C)(=O)=O)c2C2CC2)cc1` | -10.94% |
| `Cc1cnn(CC2CCCN2C(=O)c2cccc(-n3ccc(C)n3)c2)c1` (configuration not stated) | 17.62% |
| `COCCc1noc(CN(C)C2CCCN(c3ccc(C)nn3)C2)n1` (configuration not stated) | -10.73% |
| `Cc1cnc(NCc2ccc(S(=O)(=O)N(C)C(C)C)cc2)nc1C` | -3.657% |
| `Cc1ccc(CNC(=O)NCc2ccco2)s1` | -4.476% |

Some entries from above, unchanged:

COc1cc2cc(C(=O)O)n(C)c2cc1OC gave -6.579%.
O=C(CCc1ccccc1F)NC1CCCN(c2ccccn2)C1 (configuration not stated) gave -12.31%.
O=C(O)C(F)(F)F.[H][C@@]12CCC(=O)N(c3cnn(C)c3)[C@]1([H])CCN2CC1CCOCC1 gave -4.384%.
CC(C)Nc1nc2c(cc1C(=O)O)CCN(Cc1ccsc1)CC2.O=C(O)C(F)(F)F.O=C(O)C(F)(F)F gave 6.577%.
Cc1ccc(OCc2occc2C(=O)N2CCOC(C(=O)O)C2)cc1 (configuration not stated) gave 16.87%.
Cc1ccc(CN(CCCn2ccnc2)Cc2c(F)cccc2F)s1.O=C(O)CC(O)(CC(=O)O)C(=O)O gave 19.13%.
Cc1cc(CNC(=O)N2CCN(c3ccccc3)CC2)no1 gave -2.255%.